This is one part of the list.

Chains of the proteins cited; added tags and fusions are not shown. Lines headed by an entry give the natural chain unless they say otherwise; changes in a name come on top.
UniProt Q9UHB7: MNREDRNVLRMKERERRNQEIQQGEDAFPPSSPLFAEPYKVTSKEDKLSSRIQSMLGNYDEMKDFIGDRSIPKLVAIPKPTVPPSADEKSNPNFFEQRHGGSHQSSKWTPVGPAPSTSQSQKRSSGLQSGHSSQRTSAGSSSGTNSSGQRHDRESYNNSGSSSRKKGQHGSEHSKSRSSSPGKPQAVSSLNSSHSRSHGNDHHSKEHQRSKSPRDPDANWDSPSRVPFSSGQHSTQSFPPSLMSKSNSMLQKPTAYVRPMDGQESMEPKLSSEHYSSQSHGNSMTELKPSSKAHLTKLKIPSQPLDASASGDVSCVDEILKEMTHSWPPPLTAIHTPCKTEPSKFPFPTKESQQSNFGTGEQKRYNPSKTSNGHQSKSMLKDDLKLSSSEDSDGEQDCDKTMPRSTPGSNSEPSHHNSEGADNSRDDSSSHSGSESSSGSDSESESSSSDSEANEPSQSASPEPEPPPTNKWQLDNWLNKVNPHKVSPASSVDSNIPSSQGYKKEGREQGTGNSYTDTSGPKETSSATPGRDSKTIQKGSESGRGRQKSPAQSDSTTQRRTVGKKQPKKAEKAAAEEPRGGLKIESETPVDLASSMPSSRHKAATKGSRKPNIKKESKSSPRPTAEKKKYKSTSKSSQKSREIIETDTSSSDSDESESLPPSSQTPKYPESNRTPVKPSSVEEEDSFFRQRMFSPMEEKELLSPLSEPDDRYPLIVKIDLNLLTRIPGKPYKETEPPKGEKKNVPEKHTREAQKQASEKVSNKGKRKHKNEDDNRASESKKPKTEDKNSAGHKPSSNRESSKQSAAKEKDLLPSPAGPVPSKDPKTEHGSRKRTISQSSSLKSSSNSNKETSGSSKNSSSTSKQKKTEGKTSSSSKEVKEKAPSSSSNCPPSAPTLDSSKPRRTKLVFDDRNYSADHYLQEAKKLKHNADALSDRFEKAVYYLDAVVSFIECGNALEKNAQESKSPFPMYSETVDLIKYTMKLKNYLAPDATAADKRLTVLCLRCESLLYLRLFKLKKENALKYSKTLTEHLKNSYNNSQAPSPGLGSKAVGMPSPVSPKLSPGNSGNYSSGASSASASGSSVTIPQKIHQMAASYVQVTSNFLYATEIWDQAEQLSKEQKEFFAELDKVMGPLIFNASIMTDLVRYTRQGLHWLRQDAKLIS
UniProt P24666: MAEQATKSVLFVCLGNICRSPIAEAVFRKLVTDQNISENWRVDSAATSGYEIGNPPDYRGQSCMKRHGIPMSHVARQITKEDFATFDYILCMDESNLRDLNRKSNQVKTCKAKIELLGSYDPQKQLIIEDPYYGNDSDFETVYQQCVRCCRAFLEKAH
UniProt Q9BVK2: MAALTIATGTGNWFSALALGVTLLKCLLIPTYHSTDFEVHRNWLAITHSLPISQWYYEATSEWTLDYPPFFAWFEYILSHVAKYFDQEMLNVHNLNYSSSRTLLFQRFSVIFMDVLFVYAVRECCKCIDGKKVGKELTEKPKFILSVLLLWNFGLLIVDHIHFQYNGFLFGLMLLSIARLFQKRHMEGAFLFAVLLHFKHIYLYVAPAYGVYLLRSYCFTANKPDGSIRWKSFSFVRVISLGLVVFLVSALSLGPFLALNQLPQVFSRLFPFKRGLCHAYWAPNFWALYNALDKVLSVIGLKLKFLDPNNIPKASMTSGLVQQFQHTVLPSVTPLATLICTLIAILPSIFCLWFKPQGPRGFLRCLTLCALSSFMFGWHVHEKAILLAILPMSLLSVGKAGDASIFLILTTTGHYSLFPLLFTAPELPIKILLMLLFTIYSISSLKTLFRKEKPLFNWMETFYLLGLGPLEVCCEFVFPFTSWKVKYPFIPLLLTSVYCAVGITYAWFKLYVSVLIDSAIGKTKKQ
UniProt Q7Z591: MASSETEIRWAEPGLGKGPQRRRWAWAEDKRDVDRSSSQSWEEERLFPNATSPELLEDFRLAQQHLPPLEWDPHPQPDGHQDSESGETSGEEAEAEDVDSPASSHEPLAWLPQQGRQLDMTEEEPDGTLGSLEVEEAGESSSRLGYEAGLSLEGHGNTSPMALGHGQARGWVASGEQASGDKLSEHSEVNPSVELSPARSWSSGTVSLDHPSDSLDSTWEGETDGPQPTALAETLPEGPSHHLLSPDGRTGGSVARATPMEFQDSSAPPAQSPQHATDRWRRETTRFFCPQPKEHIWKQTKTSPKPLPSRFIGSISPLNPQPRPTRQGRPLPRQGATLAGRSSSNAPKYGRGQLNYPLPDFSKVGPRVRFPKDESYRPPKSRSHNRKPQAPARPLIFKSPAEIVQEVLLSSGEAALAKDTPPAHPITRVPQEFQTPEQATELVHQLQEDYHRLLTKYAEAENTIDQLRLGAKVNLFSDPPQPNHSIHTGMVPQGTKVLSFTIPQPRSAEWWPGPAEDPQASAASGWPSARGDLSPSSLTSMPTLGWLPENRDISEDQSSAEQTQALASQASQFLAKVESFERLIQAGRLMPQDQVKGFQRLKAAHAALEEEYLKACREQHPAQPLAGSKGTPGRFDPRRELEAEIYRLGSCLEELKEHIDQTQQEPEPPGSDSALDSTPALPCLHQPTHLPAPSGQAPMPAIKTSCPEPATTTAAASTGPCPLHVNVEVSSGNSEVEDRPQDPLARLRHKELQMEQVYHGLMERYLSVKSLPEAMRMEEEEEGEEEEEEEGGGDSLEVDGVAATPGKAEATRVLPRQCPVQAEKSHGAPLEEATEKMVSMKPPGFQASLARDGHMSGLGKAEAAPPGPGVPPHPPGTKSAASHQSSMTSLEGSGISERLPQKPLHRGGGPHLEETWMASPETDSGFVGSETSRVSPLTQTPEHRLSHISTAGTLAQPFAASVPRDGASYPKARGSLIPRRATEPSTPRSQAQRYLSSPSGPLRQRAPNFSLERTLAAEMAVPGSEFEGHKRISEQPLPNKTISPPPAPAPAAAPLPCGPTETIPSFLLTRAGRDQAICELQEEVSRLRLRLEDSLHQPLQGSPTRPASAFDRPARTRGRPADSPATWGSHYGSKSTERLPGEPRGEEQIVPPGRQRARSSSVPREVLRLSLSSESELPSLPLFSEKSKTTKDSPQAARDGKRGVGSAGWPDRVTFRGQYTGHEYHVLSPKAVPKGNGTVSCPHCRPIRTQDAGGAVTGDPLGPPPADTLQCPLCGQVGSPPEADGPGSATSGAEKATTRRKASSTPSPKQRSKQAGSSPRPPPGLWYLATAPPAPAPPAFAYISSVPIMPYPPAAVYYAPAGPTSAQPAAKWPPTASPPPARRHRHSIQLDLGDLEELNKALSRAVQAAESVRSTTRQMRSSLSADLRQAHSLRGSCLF
UniProt O43707, whole entry: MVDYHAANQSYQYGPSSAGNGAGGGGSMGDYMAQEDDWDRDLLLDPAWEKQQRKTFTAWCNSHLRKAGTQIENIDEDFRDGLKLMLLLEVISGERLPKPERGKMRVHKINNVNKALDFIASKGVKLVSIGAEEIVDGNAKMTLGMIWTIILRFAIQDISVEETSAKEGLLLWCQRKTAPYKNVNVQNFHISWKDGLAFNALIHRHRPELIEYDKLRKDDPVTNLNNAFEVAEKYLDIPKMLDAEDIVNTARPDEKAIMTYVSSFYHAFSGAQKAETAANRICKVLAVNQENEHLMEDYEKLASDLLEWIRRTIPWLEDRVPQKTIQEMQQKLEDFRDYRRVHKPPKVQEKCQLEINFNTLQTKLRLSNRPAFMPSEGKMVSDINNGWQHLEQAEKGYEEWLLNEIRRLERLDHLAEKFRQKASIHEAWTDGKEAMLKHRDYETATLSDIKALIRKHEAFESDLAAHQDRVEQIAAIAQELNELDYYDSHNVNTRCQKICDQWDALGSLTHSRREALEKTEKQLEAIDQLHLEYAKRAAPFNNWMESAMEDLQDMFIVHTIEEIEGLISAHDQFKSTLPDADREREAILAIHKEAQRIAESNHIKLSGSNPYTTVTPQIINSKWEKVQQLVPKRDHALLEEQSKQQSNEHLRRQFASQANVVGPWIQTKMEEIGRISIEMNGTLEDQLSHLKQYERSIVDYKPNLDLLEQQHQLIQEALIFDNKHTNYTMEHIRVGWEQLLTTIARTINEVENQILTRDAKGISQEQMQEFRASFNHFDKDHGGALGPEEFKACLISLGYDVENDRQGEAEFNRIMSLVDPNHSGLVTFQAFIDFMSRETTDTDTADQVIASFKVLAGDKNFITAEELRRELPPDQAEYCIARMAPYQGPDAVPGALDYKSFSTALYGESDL
UniProt Q53H12: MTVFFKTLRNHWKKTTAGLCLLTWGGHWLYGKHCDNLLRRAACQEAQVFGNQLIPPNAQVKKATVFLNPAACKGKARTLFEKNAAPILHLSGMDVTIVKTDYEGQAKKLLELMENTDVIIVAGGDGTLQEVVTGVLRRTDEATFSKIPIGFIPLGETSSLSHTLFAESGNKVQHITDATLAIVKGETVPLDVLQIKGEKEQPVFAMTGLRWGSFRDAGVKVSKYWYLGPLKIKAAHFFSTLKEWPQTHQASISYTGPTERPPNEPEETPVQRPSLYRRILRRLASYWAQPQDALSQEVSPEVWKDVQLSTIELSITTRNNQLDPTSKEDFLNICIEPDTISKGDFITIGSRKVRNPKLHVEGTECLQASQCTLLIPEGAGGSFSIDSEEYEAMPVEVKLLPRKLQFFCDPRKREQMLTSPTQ
UniProt P51648: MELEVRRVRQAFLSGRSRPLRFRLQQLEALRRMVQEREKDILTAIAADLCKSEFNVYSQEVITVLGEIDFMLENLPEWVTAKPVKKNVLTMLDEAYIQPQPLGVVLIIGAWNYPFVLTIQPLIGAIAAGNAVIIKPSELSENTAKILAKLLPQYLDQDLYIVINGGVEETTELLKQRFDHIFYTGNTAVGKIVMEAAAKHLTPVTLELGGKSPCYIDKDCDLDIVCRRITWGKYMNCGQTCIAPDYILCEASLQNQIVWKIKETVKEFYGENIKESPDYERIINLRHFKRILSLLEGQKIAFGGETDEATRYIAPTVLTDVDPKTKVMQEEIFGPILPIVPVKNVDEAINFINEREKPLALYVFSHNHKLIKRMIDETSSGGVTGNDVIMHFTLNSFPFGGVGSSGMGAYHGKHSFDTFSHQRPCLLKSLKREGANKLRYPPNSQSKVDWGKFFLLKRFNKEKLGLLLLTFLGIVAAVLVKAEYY
UniProt Q5VYY1: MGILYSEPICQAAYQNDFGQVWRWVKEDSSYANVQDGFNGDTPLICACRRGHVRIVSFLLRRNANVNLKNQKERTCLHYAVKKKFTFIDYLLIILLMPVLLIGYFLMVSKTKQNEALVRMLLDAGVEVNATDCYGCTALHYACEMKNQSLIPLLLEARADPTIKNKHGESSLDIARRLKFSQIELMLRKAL
UniProt Q9BZZ5: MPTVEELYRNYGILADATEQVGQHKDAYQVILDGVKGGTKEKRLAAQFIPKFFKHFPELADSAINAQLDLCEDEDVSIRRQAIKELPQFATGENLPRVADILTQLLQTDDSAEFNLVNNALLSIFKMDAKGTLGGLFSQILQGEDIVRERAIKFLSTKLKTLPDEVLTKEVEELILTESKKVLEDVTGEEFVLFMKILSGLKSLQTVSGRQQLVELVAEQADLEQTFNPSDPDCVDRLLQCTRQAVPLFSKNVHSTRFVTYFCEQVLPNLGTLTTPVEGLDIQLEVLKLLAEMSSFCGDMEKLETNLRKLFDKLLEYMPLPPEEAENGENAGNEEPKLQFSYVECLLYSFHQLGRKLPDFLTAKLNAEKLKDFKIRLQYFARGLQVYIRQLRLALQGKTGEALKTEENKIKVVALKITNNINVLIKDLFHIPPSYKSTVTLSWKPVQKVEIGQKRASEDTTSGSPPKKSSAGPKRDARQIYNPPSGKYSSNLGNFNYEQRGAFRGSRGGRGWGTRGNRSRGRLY
UniProt P27695, whole entry: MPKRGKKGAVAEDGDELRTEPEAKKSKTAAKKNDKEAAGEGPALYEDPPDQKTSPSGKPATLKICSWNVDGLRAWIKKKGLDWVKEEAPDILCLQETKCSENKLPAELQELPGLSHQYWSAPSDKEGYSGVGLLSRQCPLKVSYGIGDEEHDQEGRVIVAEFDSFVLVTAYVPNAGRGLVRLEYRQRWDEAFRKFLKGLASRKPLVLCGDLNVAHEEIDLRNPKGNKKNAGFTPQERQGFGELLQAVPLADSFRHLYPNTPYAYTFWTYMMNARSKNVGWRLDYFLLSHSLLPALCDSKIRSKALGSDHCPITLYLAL
UniProt Q9H568: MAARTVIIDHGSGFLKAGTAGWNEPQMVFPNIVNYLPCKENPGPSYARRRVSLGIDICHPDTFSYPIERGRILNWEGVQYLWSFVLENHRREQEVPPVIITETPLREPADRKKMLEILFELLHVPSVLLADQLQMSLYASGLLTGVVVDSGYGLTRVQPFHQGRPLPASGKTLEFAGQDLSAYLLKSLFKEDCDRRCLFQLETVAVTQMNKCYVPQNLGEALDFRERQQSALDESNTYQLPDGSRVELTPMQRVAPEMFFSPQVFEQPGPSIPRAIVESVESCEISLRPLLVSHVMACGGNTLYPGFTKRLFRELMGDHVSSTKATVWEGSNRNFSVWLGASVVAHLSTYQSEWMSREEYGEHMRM

The record followed here is the supplement of paper PMC7666118.

Compound in this experiment: COc1ccc(Cn2ccc3ccc(C(=O)NO)cc32)cc1
Description: dose-dependent thermal stabilisation call (2D-TPP, DLPTP, 10% FDR) (binary (1 = stabilised)); higher = stabilised by the compound. The settings on record: system: HL-60 intact cells; concentration range 0.04-10 µM.
For the target ADO (UniProt Q96SZ5), the “dose-dependent thermal stabilisation call” value was inactive: 0.
The same measure for AGPS (UniProt O00116): inactive: 0.
As for APOB48R (UniProt Q0VD83), the figure is inactive: 0; as for ACTR2 (UniProt P61160), inactive: 0.
The same measure for AFF4 (UniProt Q9UHB7): inactive: 0; for ACP1 (UniProt P24666): inactive: 0; for ALG8 (UniProt Q9BVK2): inactive: 0.
For ARF5 (UniProt P84085), the “dose-dependent thermal stabilisation call” value is inactive: 0.
With ACSL1 (UniProt P33121), the “dose-dependent thermal stabilisation call” value was inactive: 0.
As for ACSF2 (UniProt Q96CM8), the figure is inactive: 0.
As for ARHGAP26 (UniProt Q9UNA1), the figure is inactive: 0; as for AKNA (UniProt Q7Z591), inactive: 0.
As for ACTN4 (UniProt O43707), the figure is inactive: 0.
For the target ANKRD40 (UniProt Q6AI12), the “dose-dependent thermal stabilisation call” value was inactive: 0.
For the target AGK (UniProt Q53H12), the “dose-dependent thermal stabilisation call” value was inactive: 0.
The same measure for ANXA11 (UniProt P50995): inactive: 0; for ARFRP1 (UniProt Q13795): inactive: 0.
With APOBEC3G (UniProt Q9HC16), the “dose-dependent thermal stabilisation call” value is inactive: 0.
As for ANKRD52 (UniProt Q8NB46), the figure is inactive: 0.
For AP4S1 (UniProt Q9Y587), the “dose-dependent thermal stabilisation call” value is inactive: 0.
With ALDH3A2 (UniProt P51648), the “dose-dependent thermal stabilisation call” value is inactive: 0.
The same measure for ARFIP2 (UniProt P53365): inactive: 0; for AMPD2 (UniProt Q01433): inactive: 0.
As for ARF3 (UniProt P61204), the figure is inactive: 0; as for ARHGEF11 (UniProt O15085), inactive: 0.
On to ANKRD22 (UniProt Q5VYY1), for which the “dose-dependent thermal stabilisation call” value was inactive: 0.
ALDH16A1 (UniProt Q8IZ83): the “dose-dependent thermal stabilisation call” value was inactive: 0.
With API5 (UniProt Q9BZZ5), the “dose-dependent thermal stabilisation call” value is inactive: 0.
As for APEX1 (UniProt P27695), the figure is inactive: 0; as for AKR7A2 (UniProt O43488), inactive: 0; as for AGFG1 (UniProt P52594), inactive: 0.
The same measure for ACTL8 (UniProt Q9H568): inactive: 0.
As for ALDH18A1 (UniProt P54886), the figure is inactive: 0.
For ADD3 (UniProt Q9UEY8), the “dose-dependent thermal stabilisation call” value was inactive: 0.
ACTR3 (UniProt P61158): the “dose-dependent thermal stabilisation call” value is inactive: 0.
The same measure for ADFP (UniProt Q99541): inactive: 0; for AGXT2L2 (UniProt Q8IUZ5): inactive: 0.
